Reference: PubChem BioAssay AID2288 (National Center for Advancing Translational Sciences (NCATS), 2010)
Only a part is listed here, and it is no random draw. Calls of active or inactive are those of the source. Calls come from the whole dose curve; as a rule, active = well fitted curve in the direction sought with a large enough effect; inconclusive = small, poorly fitted or top-dose-only effect, or another doubt; inactive = no such curve, though single readings can be large or run the other way.

assay: qHTS Assay for Modulators of miRNAs and/orActivators of miR-21; settings: HeLa miR-21 FLuc reporter, luciferase, 48 h; at 38.3 µM (top of the series);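 note: % of control where 0% means no effect; miR-21 action dims this reporter so a rising signal means less miR-21 action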
Text: MLSCN Grant: 1 R21 NS059478-01 Assay Provider: Qihong Huang, The Wistar Institute NCGC Assay Overview: MicroRNAs (miRNAs) are endogenously encoded small (~20-25 nucleotides), nonprotein-coding RNAs that are involved in post-transcriptional repression of target messenger RNAs (mRNAs) (Le and Hannon, 2004). Estimated to be involved in the regulation of 30% of all protein-coding mRNAs (Filipowicz et al., 2008), miRNAs play a significant role in many biological processes including cellular differentiation and tissue development (Ghildiyal and Zamore, 2009).
NCGC Assay Protocol Summary: Reagents: HeLa cells stably expressing firefly luciferase (FLuc) under the control of a CMV promoter (upstream) and a miR-21 binding sequence directly downstream of the gene. These cells endogenously express miR-21. Control compounds used were compound C3 (provided by collaborator), N6-phenyladenosine (MP Biomedicals, 0215379625), and DMSO. Assay Summary: 6uL of HeLa miR-21-FLuc cells in assay buffer (DMEM, Invitrogen #21063-029; 10% FBS, HyClone #SH30071.03) were dispensed at 2000cells/well (3.3 x 10^5 cells/mL) into Greiner solid-white TC-treated 1536-well plates using a Multidrop Combi (Thermo Fisher Scientific). Plates were incubated for one hour at 37 degree Celsius, 95% humidity, 5% CO2. These assay plates were then treated with 23nL of compound or DMSO using a Kalypsys pin tool, which allows for delivery of a 24-point titration of each compound to the assay plate, with a final compound concentration ranging from approximately 40uM to 5pM. Assay plates were then incubated for 48 hours. After incubation, plates were allowed to come to RT for one hour prior to delivery of 3uL of 3X luciferase detection reagent. After a 15 minute incubation to allow for cell lysis, luciferase activity was measured using a ViewLux CCD imager (PerkinElmer), with an average exposure time of 2-12 seconds. Keywords: NIH Roadmap, MLPCN, MLSMR, qHTS, miR-21, microRNA, firefly luciferase, FLuc.

Activity change, positive = activation, inactive:
O=C1CC(c2ccccc2)Oc2cc(O)ccc21 (stereo not drawn) -48.5%
O=c1ccc2ccc(OCc3ccccc3)cc2o1 -55%
Cc1cc(=O)oc2cc(OCc3ccccc3)ccc12 -70.4%
